Measured values reported in the supplement of paper PMC10849652.
The other results are listed elsewhere or left out.

Amino acid sequences for entries named in this document (tags omitted). A change or cut given only in a name is not applied to a line headed by its entry.
UniProt Q9H6T3, whole entry, looked up: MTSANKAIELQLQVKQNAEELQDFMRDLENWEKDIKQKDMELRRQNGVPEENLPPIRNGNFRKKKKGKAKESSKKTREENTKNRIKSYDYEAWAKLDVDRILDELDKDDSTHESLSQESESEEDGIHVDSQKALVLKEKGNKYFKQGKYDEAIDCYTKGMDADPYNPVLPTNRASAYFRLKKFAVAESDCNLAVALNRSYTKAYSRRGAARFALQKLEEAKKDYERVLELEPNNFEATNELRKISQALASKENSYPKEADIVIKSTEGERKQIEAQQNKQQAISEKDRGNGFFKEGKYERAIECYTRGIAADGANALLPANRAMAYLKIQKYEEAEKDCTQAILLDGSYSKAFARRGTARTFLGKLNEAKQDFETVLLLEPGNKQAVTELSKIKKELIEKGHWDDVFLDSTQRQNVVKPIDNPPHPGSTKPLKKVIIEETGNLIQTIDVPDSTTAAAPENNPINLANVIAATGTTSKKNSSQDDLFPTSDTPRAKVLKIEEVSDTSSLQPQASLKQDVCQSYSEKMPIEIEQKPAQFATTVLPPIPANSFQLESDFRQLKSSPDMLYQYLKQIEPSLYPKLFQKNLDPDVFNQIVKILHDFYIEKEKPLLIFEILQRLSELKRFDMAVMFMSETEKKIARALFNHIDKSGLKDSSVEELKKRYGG
UniProt Q15349, whole entry, looked up: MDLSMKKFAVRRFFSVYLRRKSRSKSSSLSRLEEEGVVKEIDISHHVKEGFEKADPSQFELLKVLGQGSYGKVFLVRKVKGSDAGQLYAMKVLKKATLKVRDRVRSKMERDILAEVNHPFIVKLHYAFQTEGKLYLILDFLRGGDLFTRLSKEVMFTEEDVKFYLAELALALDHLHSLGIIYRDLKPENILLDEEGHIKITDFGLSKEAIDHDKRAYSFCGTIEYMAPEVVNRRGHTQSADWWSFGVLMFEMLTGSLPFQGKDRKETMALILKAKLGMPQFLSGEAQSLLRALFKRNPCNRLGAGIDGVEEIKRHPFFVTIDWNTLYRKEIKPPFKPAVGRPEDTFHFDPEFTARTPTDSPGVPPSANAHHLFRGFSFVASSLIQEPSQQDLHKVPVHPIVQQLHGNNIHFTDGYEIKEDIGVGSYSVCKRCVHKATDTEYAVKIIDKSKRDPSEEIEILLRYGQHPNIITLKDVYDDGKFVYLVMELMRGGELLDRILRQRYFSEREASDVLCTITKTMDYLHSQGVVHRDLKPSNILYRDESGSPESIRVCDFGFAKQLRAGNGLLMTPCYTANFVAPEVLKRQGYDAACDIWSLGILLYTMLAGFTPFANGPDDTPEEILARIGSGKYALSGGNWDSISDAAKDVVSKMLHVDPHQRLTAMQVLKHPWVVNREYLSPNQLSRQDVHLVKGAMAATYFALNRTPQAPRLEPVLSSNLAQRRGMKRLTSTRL
UniProt O75116: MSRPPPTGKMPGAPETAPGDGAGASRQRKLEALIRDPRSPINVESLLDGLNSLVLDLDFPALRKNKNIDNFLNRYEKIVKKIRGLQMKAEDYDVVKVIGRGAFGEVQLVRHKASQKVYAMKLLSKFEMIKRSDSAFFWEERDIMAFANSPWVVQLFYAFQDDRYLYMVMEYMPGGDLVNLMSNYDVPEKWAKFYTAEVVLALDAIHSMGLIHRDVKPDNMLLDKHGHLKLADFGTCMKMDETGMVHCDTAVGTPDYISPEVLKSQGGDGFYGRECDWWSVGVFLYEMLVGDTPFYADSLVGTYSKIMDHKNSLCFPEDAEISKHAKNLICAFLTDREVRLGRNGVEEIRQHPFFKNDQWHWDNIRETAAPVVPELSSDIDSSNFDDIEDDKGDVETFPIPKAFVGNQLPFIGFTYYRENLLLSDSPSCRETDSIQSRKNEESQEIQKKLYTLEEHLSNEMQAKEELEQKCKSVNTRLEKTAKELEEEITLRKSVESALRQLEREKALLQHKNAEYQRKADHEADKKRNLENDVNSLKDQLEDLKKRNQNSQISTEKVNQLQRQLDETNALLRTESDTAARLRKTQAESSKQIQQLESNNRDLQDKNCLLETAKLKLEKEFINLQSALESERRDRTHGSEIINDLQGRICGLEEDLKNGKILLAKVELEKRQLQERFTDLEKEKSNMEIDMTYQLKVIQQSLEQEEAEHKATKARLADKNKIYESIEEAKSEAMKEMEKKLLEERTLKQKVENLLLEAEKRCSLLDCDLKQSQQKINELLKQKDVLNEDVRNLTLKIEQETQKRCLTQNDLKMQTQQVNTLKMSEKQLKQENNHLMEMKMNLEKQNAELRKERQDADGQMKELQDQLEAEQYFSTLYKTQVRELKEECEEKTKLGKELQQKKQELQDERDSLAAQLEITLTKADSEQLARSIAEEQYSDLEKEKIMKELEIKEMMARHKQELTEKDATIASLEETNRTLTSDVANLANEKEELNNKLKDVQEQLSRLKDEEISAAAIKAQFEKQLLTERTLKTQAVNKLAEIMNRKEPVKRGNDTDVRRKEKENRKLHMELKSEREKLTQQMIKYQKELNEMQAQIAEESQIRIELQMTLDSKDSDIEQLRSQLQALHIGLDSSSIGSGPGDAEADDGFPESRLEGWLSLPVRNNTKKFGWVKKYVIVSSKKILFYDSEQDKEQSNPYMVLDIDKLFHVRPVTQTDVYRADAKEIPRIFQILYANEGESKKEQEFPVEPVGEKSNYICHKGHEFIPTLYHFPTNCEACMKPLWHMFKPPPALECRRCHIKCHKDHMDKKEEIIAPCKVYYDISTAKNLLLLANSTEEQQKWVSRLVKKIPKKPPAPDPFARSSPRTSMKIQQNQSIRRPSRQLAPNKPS
UniProt Q8TA86: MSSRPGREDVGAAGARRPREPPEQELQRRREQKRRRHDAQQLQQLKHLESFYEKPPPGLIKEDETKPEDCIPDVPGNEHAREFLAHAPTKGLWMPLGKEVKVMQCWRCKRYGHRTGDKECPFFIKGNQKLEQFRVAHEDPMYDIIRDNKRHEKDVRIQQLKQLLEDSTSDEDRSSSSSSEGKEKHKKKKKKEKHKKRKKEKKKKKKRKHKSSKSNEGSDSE
UniProt Q96AT9: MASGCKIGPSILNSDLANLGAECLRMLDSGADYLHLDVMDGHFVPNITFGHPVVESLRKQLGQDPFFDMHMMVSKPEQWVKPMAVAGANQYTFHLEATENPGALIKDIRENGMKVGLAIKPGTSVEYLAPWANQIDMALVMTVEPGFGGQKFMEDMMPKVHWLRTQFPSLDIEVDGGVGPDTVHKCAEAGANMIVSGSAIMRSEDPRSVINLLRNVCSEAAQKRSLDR
UniProt Q9H4A4: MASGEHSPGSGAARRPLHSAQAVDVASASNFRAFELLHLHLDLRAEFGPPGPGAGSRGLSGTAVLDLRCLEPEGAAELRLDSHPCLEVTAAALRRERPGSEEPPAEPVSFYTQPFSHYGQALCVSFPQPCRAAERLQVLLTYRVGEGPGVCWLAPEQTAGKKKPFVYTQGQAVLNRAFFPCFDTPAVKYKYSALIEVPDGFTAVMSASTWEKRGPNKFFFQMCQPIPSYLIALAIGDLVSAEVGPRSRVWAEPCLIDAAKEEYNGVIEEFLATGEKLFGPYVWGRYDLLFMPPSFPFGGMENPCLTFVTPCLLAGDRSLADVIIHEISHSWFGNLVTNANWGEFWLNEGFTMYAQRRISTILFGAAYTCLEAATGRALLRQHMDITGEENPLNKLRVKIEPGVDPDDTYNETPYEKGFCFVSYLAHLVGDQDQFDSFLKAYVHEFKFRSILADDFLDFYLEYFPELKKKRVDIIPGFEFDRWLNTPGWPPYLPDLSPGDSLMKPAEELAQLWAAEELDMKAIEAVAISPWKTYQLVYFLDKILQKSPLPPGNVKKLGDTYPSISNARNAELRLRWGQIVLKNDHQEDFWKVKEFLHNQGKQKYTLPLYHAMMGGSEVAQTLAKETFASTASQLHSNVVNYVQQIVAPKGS
UniProt Q9HB90, whole entry, looked up: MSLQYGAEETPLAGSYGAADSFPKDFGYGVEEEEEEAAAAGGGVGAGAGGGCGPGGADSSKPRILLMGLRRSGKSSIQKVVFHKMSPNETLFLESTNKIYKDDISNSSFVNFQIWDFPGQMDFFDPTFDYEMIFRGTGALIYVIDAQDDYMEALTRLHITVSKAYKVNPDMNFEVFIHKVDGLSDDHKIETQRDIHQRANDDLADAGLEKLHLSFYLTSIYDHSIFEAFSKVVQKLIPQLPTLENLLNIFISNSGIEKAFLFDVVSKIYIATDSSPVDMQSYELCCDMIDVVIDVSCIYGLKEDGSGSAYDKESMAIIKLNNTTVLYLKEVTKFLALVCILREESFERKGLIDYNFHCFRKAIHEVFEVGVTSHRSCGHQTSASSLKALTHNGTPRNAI
UniProt P13489: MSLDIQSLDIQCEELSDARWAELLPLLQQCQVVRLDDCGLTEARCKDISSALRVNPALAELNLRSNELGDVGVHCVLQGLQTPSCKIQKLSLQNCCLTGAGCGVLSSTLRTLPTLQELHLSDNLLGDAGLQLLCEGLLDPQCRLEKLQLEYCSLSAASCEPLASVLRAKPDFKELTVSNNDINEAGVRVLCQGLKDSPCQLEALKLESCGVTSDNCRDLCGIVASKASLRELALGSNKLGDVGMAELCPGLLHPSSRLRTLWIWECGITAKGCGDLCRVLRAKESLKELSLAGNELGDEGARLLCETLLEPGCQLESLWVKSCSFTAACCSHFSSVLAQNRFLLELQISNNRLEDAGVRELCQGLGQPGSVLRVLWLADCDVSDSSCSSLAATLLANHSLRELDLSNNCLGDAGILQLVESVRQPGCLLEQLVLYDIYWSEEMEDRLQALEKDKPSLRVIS
UniProt Q99942: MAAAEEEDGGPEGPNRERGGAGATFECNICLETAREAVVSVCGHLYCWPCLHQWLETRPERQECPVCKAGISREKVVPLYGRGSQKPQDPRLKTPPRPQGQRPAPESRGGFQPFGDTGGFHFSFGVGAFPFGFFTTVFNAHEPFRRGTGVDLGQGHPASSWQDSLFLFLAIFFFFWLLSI
UniProt P35244: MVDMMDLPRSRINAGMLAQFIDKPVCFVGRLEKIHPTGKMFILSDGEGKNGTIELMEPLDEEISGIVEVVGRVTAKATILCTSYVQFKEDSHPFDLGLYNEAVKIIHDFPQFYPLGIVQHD
UniProt P62070: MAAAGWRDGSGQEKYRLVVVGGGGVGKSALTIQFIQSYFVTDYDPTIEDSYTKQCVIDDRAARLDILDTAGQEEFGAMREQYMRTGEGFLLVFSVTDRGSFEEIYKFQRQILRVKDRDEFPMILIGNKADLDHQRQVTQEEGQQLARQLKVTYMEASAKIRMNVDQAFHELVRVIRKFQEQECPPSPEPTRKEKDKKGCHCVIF
UniProt Q8N5L8: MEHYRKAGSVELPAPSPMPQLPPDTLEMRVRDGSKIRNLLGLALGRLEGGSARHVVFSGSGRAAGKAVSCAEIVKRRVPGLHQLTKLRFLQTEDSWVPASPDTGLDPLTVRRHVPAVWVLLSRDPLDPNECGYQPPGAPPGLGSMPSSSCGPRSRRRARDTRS

Tests used:
Assay in all cases: log2 fold change, soluble protein after heating vs DMSO (PISA); higher = thermal stabilisation; K562 cells, 10 uM, 30 min; active = over 0.2 and 3.5 SD of the protein, either way, in both replicates (recomputed)
[1] = compound: CC[C@@H]1C(=O)N(C)c2cnc(Nc3ccc(C(=O)NC4CCN(C)CC4)cc3OC)nc2N1C1CCCC1
How it was run: (§1)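 K562 cells at 2×10^6 cells/mL were treated with 10 μM compound for 30 min. Aliquots were heated for 3 min across 48°C-58°C, pooled, and extracted in PBS with 0.5% NP-40 at 4°C; soluble protein was the supernatant after 21,000xg for 90 min. Soluble protein was quantified by TMTpro 16plex LC-MS/MS with channel sums equalised, and reported as log2 fold change in thermal stability against DMSO controls, with values from duplicates.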

[2] = compound: CC[C@@H]1C(=O)N(C)c2cnc(Nc3ccc(C(=O)N[C@H]4CC[C@H](N5CCN(CC6CC6)CC5)CC4)cc3OC)nc2N1C(C)C [volasertib]
How it was run: as §1

[3] = compound: CC[C@H](C)N1C=C(C2=C(C=C(C=C21)C3=CN=C(C=C3)N4CCNCC4)C(=O)NCC5=C(C=C(NC5=O)C)C)C
How it was run: as §1

[4] = compound: CC[C@H](C)[C@@H](C(=O)N[C@@H]([C@@H](C)O)C(=O)N[C@@H](CC(C)C)C(=O)[C@]1(CO1)C)NC(=O)[C@H]([C@@H](C)CC)N(C)C(=O)C [epoxomicin]
How it was run: as §1

[5] = compound: CCn1cc(-c2ccnc3[nH]c(-c4cccc(CN(C)C)c4)cc23)c(-c2ccc(NC(=O)N(C)C)cc2)n1
How it was run: as §1

[6] = compound: CN(C)CC(=O)Nc1ccc2[nH]c(=O)c3ccccc3c2c1
How it was run: as §1

[7] = compound: CN1C2=C(C3=C1C(=O)N(N=C3)CC4=CC(=CC=C4)N)SC(=C2)S(=O)C
How it was run: as §1

[8] = compound: CN1CCC(CNc2ccc3ncc(-c4cccc(OC(F)(F)F)c4)n3n2)CC1
How it was run: as §1

[9] = compound: CCn1c(C(=O)N(C2CC2)C2CC2)cc2c3c(ncn3C)c(Nc3cc(C)n(C)n3)nc21
How it was run: as §1

[10] = compound: CN(CCOC1=CC=C(C=C1)C[C@H]2C(=O)NC(=O)S2)C3=CC=CC=N3 (racemic) [rosiglitazone]
How it was run: as §1

Measured: log2 fold change

RPS5 (UniProt P46782)
inactive: [1] 0.103 | [2] 0.337 | [3] 0.065 | [4] -0.079 | [5] 0.059 | [6] -0.036 | [7] 0.089 | [8] 0.044

RPS15 (UniProt P62841)
inactive: [1] 0.2 | [2] 0.294 | [3] -0.017 | [4] -0.056 | [5] 0.061 | [6] -0.099 | [7] 0.164 | [8] 0.02

RPS27A (UniProt P62979)
inactive: [1] -0.061 | [2] 0.36 | [3] 0.05 | [4] -0.078 | [5] 0.033 | [6] -0.153 | [7] 0.155 | [8] 0.194

RPS21 (UniProt P63220)
active: [2] 0.238
inactive: [1] 0.089 | [3] -0.04 | [4] 0.028 | [5] 0.055 | [6] -0.045 | [7] -0.004 | [8] 0.073

RPL31 (UniProt P62899)
inactive: [1] 0.212 | [2] 0.457 | [3] 0.01 | [4] -0.238 | [5] 0.216 | [6] -0.108 | [7] 0.251 | [8] 0.259

RPAP3 (UniProt Q9H6T3)
inactive: [1] -0.025 | [2] -0.104 | [3] 0.043 | [4] -0.006 | [9] -0.045 | [5] -0.035 | [6] 0.029 | [10] 0.039 | [7] 0.027 | [8] -0.034

RPS16 (UniProt P62249)
inactive: [1] 0.125 | [2] 0.388 | [3] 0.044 | [4] -0.118 | [5] 0.124 | [6] -0.085 | [7] 0.112 | [8] 0.1

RPS18 (UniProt P62269)
inactive: [1] 0.158 | [2] 0.3 | [3] -0.011 | [4] -0.111 | [5] 0.057 | [6] -0.036 | [7] 0.096 | [8] 0.11

RPS6KA2 isoform 2 (UniProt Q15349)
inactive: [1] -0.136 | [2] -0.179 | [3] 0.034 | [4] 0.041 | [5] -0.126 | [6] 0.025 | [7] -0.038 | [8] -0.313

RPS20 isoform 2 (UniProt P60866)
inactive: [1] 0.114 | [2] 0.31 | [3] -0.009 | [4] -0.103 | [5] 0.065 | [6] -0.03 | [7] 0.091 | [8] 0.063

ROCK2 (UniProt O75116)
inactive: [1] -0.033 | [2] -0.139 | [3] -0.009 | [4] 0.063 | [5] -0.178 | [6] 0.007 | [7] -0.02 | [8] -0.042

RPS6 (UniProt P62753)
inactive: [1] 0.153 | [2] 0.492 | [3] 0.034 | [4] -0.345 | [9] 0.018 | [5] 0.243 | [6] -0.131 | [10] -0.152 | [7] 0.233 | [8] 0.245

RPL23A (UniProt P62750)
inactive: [1] 0.152 | [2] 0.41 | [3] 0.024 | [4] -0.285 | [9] 0.037 | [5] 0.198 | [6] -0.118 | [10] -0.159 | [7] 0.277 | [8] 0.276

RP9 (UniProt Q8TA86)
inactive: [1] 0.221 | [2] 0.259 | [3] -0.003 | [4] -0.122 | [9] 0.186 | [5] 0.165 | [10] -0.076 | [7] 0.355 | [8] 0.074

RPS3 (UniProt P23396)
inactive: [1] 0.147 | [2] 0.34 | [3] 0.011 | [4] -0.125 | [5] 0.125 | [6] -0.071 | [7] 0.085 | [8] 0.045

RPL35A (UniProt P18077)
inactive: [1] 0.254 | [2] 0.885 | [3] -0.018 | [4] -0.714 | [9] 0.098 | [5] 0.444 | [6] -0.319 | [10] -0.412 | [7] 0.553 | [8] 0.387

RPE (UniProt Q96AT9)
inactive: [1] 0.04 | [2] 0.022 | [3] 0.115 | [4] 0.001 | [9] -0.062 | [6] -0.013 | [10] -0.077 | [7] 0.02

RPS12 (UniProt P25398)
inactive: [1] 0.108 | [2] 0.219 | [3] 0.038 | [4] -0.021 | [5] 0.063 | [6] -0.028 | [7] 0.064 | [8] 0.079

RNPEP (UniProt Q9H4A4)
inactive: [1] 0.015 | [3] 0.078 | [4] 0.042 | [5] -0.09 | [6] 0.034 | [7] -0.036 | [8] -0.119
active: [2] -0.303

RRAGC (UniProt Q9HB90)
inactive: [1] -0.009 | [2] -0.003 | [3] -0.051 | [4] -0.045 | [5] 0 | [6] -0.024 | [7] -0.067 | [8] -0.177

Quoted from the results shown (2 entries):
RPAP3 (UniProt Q9H6T3)
inactive: [1] -0.025 | [2] -0.104 | [3] 0.043 | [4] -0.006 | [9] -0.045 | [5] -0.035 | [6] 0.029 | [10] 0.039 | [7] 0.027 | [8] -0.034

RPS16 (UniProt P62249)
inactive: [1] 0.125 | [2] 0.388 | [3] 0.044 | [4] -0.118 | [5] 0.124 | [6] -0.085 | [7] 0.112 | [8] 0.1

Remaining list, next part

RPS19 (UniProt P39019)
inactive: [1] 0.147 | [2] 0.319 | [3] 0.008 | [4] -0.115 | [5] 0.091 | [6] -0.073 | [7] 0.147 | [8] 0.121

RNH1 (UniProt P13489)
inactive: [1] -0.066 | [2] -0.115 | [3] 0.016 | [4] 0.032 | [9] -0.005 | [5] -0.034 | [6] 0.028 | [10] 0.041 | [7] -0.096 | [8] -0.079

RNF5 (UniProt Q99942)
inactive: [1] -0.198 | [2] -0.062 | [3] 0.006 | [4] 0.061 | [9] -0.039 | [5] 0.073 | [6] 0.007 | [10] 0 | [8] -0.29

RPA3 (UniProt P35244)
inactive: [1] -0.006 | [2] -0.056 | [3] -0.002 | [4] 0.06 | [5] -0.044 | [6] 0.163 | [7] -0.054 | [8] 0.039

RRAS2 isoform 4 (UniProt P62070)
inactive: [1] 0.061 | [2] 0.124 | [3] -0.048 | [4] 0.063 | [5] 0.014 | [6] -0.013 | [7] -0.064
active: [8] 0.207

RPL11 (UniProt P62913)
inactive: [1] 0.193 | [2] 0.467 | [3] 0.01 | [4] -0.591 | [9] 0.01 | [5] 0.217 | [6] -0.231 | [10] -0.248 | [7] 0.449 | [8] 0.314

RPP25L (UniProt Q8N5L8)
inactive: [1] 0.144 | [2] 0.115 | [3] -0.042 | [4] -0.04 | [5] 0.059 | [6] -0.074 | [7] 0.061 | [8] 0.058

RPS9 (UniProt P46781)
inactive: [1] 0.203 | [2] 0.339 | [3] 0.02 | [4] -0.24 | [5] 0.088 | [6] -0.095 | [7] 0.174 | [8] 0.146

RPL10 (UniProt F8W7C6)
inactive: [1] 0.246 | [2] -0.152 | [3] -0.048 | [4] 0.017 | [9] -0.198 | [5] 0.152 | [6] -0.073 | [10] -0.023 | [8] 0.28

RPL38 (UniProt P63173)
inactive: [1] 0.076 | [2] 0.187 | [3] 0.033 | [4] -0.062 | [5] -0.03 | [6] -0.02 | [7] -0.004 | [8] 0.052

RPS13 (UniProt P62277)
inactive: [1] 0.219 | [2] 0.567 | [3] 0.035 | [4] -0.324 | [5] 0.236 | [6] -0.066 | [7] 0.219 | [8] 0.243
